ChEMBL document CHEMBL5032511, “Improving Druggability of Novel Diarylpyrimidine NNRTIs by a Fragment-Based Replacement Strategy: From Biphenyl-DAPYs to Heteroaromatic-Biphenyl-DAPYs” (J Med Chem, 2021)

Chains of the proteins cited; added tags and fusions are not shown.
UniProt P33261, whole entry: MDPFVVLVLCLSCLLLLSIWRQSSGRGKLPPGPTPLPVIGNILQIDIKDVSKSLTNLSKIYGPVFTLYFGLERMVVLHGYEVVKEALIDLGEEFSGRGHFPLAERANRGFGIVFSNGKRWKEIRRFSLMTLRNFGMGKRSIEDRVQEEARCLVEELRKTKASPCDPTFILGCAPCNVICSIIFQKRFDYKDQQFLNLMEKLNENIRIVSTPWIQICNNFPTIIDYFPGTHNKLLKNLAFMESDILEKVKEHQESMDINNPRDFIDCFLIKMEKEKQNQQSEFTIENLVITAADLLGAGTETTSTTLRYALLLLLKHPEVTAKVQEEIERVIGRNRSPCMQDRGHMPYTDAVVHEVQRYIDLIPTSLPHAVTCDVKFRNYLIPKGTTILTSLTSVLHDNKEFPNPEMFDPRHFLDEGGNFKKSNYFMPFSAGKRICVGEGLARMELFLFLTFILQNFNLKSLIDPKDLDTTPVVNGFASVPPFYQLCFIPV

Columns and labels:
[1] = physchem; conditions: buffer, pH 2
[2] = Aqueous solubility of compound in PBS at pH 7.4 by HPLC-UV analysis; conditions: buffer
[3] = Aqueous solubility of compound in PBS at pH 7 by HPLC-UV analysis; conditions: buffer
[4] = molecular target: Cytochrome P450 2C19 (Homo sapiens, UniProt P33261)

In the case of `CC(=O)O.N#Cc1ccc(Nc2nccc(Nc3c(F)cc(-c4ccncc4)cc3F)n2)cc1`, the solubility [1] is reported as 184 µg/mL, the solubility [2] is reported as less than 1 µg/mL and the solubility [3] is reported as less than 1 µg/mL.

In the case of `Br.N#Cc1ccc(Nc2nccc(Nc3c(F)cc(-c4ccncc4)cc3F)n2)cc1`, the solubility [1] is reported as 577 µg/mL.

`N#Cc1ccc(Nc2nccc(Nc3c(F)cc(-c4ccncc4)cc3F)n2)cc1.O=C(O)/C=C\C(=O)O` gave a solubility [2] of less than 1 µg/mL and a solubility [3] of less than 1 µg/mL.

Molecule `Cl.N#Cc1ccc(Nc2nccc(Nc3c(F)cc(-c4ccncc4)cc3F)n2)cc1` has a solubility [1] of 611 µg/mL, an IC50 [4] of 22 µM and a solubility [2] of 24.8 µg/mL. The solubility [3] was 24.9 µg/mL.

`N#Cc1ccc(Nc2nccc(Nc3c(F)cc(-c4ccncc4)cc3F)n2)cc1.O=S(=O)(O)O` showed a solubility [1] of 35.7 µg/mL, a solubility [2] of less than 1 µg/mL and a solubility [3] of less than 1 µg/mL.

`N#Cc1ccc(Nc2nccc(Nc3c(F)cc(-c4ccncc4)cc3F)n2)cc1.O=C(O)C(F)(F)F` gave a solubility [1] of 476 µg/mL, a solubility [2] of less than 1 µg/mL and a solubility [3] of less than 1 µg/mL.

`CS(=O)(=O)O.N#Cc1ccc(Nc2nccc(Nc3c(F)cc(-c4ccncc4)cc3F)n2)cc1` gave a solubility [1] of 170 µg/mL, a solubility [2] of less than 1 µg/mL and a solubility [3] of less than 1 µg/mL.
